{"source": "patent US20230051797A1", "about": "“METHOD FOR RECOVERING EXTRACELLULAR VESICLE AND BLOOD COLLECTION VESSEL” (FUJIREBIO INC., priority 2019, published 2023)", "tested_on": "CD9, the surface marker protein of extracellular vesicle (EV)", "assay": "Study of action of chelating agent and surfactant on whole blood or on immune reaction (CD9, Example 5)", "design": "species or system human", "method": "To 0.01 g/mL of magnetic particles in 10 mM MES buffer (pH 5.0), 0.2 mg/mL of a mouse anti-CD9 monoclonal antibody (Fujirebio Inc.) that recognizes an extracellular vesicle (EV) surface marker CD9, was added. Then, the resulting solution was gently stirred at 25° C. for one hour for incubation. After the reaction, the magnetic particles were magnetically collected and washed with a washing solution (50 mM Tris buffer, 150 mM NaCl2, 2.0% BSA, pH 7.2) in order to obtain anti-CD9 antibody solid-phased particles. Each antibody solid-phased particle was suspended in a particle diluent (50 mM Tris buffer, 1 mM EDTA-2Na, 0.1% NaN3, 2.0% BSA, pH 7.2) in order to obtain each antibody solid-phased particle solution.\nDesalted alkaline phosphatase (ALP) was mixed with N-(4-maleimidobutyryloxy)-succinimide (GMBS) (final concentration 0.3 mg/mL) and the resulting solution was allowed to stand at 30° C. for one hour for maleimidation of ALP. Next, in a coupling reactant solution (100 mM phosphate buffer, 1 mM EDTA-2Na, pH 6.3), Fab's of mouse anti-CD9 monoclonal antibody was mixed with maleimidized ALP at a molar ratio of 1: 1, and reacted at 25° C. for one hour. The reactant solution was subjected to purification using Superdex 200 column chromatography (General Electric Company) to obtain ALP-labeled anti-CD9 antibody. Each ALP-labeled antibody was suspended in a labeled antibody diluent (50 mM MES buffer, 150 mM NaCl2, 0.3 mM ZnCl2, 1 mM MgCl2, 0.1% NaN3, 2.0% BSA, pH 6.8) to obtain each labeled antibody solution.\n20 μL of the sample for measurement and 50 μL of the anti-CD9 antibody solid-phased particle solution were dispensed into the reaction vessel and stirred. Then, the resulting solution was incubated at 37° C. for 8 minutes (primary reaction), and B/F separation and washing were carried out. 50 μL of the ALP-labeled antibody was dispensed into the reaction vessel, the resulting solution was stirred and then incubated at 37° C. for 8 minutes, and B/F separation and washing were carried out. Then, 200 μL of Lumipulse (registered trademark) substrate solution (Fujirebio Inc.) containing 3-(2′-spiroadamantane)-4-methoxy-4-(3″-phosphoryloxy)phenyl-1,2-dioxetane disodium salt (AMPPD) serving as a chemiluminescent substance was dispensed into the reaction chamber. The resulting solution was stirred and then incubated at 37° C. for 4 minutes for the measurement of luminescence intensity using luminometer. A count value was obtained as the measured value. The luminescence intensity was measured using a fully automated chemiluminescent enzyme immunoassay system (Lumipulse L2400 (Fujirebio Inc.)).\nAntibodies recognizing the same epitope in CD9 were used as the antibody solid-phased on the magnetic particle and the ALP-labeled antibody. Due to the presence of a plurality of CD9 on a single extracellular vesicle, it is possible to measure for the extracellular vesicle presenting a plurality of CD9 to be indicated as the surface marker rather than free CD9 by means of the sandwich immunoassay in which the antibodies recognizing the same epitope as the solid-phased antibodies were used as the ALP-labeled antibodies.\nWe investigated whether the chelating agent and the surfactant act on whole blood or on immune reaction. […]\nIn addition, CD9 was measured also for a solution obtained by adding 100 mM EGTA to the CD9 antibody solid-phased particle solution. […]"}
{"molecule": "O=C(O)CN(CCOCCOCCN(CC(=O)O)CC(=O)O)CC(=O)O", "note": "[EGTA, glycol ether diamine tetraacetic acid]", "values": [{"measurement": "count value, EGTA added to the CD9 antibody solid-phased particle solution vs not added", "setting": "100 mM EGTA in particle solution", "value": "not significantly higher"}, {"measurement": "count value vs supernatants prepared from whole blood without EGTA", "setting": "EGTA final 200 mM in whole blood, with 0% or 1% tergitol 15-S-40", "value": "significantly higher count values"}, {"measurement": "Count average", "setting": "blood collection vessel: 200 mM EGTA, 0% Tergitol, particle solution: 100 mM EGTA + 0.5% Tergitol", "value": 116133}, {"measurement": "Count average", "setting": "blood collection vessel: 200 mM EGTA, 0% Tergitol, particle solution: 0.5% Tergitol", "value": 102897}, {"measurement": "Count average", "setting": "blood collection vessel: nothing added, particle solution: 100 mM EGTA + 0.5% Tergitol", "value": 13768}]}
